# The other results are listed elsewhere or left out.
# By UniProt entry, the sequences of proteins in these tests, tags left out. Where a name states a change or a piece, a line headed by the entry shows the natural chain unless it says otherwise.
# UniProt Q8TEQ0: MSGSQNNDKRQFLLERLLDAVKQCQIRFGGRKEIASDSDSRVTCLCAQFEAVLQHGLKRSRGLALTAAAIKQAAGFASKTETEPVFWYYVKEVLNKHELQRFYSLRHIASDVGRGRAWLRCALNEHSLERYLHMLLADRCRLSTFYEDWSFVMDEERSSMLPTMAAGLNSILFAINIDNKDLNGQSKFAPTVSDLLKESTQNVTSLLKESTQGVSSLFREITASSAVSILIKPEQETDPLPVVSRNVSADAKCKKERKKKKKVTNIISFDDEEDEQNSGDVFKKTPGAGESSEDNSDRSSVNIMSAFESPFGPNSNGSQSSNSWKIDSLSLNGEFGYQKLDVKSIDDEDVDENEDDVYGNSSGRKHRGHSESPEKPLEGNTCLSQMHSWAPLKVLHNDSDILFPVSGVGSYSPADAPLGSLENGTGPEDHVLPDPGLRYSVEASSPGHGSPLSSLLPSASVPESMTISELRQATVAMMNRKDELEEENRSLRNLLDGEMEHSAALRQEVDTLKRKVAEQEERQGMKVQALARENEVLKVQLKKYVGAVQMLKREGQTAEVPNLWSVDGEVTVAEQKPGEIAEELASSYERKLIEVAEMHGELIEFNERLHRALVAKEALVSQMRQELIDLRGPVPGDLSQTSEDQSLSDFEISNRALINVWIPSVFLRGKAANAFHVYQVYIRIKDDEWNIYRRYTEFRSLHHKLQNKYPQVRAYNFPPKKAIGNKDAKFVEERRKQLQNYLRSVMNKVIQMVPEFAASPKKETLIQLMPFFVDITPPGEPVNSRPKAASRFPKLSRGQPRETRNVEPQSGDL
# UniProt Q9Y5W8: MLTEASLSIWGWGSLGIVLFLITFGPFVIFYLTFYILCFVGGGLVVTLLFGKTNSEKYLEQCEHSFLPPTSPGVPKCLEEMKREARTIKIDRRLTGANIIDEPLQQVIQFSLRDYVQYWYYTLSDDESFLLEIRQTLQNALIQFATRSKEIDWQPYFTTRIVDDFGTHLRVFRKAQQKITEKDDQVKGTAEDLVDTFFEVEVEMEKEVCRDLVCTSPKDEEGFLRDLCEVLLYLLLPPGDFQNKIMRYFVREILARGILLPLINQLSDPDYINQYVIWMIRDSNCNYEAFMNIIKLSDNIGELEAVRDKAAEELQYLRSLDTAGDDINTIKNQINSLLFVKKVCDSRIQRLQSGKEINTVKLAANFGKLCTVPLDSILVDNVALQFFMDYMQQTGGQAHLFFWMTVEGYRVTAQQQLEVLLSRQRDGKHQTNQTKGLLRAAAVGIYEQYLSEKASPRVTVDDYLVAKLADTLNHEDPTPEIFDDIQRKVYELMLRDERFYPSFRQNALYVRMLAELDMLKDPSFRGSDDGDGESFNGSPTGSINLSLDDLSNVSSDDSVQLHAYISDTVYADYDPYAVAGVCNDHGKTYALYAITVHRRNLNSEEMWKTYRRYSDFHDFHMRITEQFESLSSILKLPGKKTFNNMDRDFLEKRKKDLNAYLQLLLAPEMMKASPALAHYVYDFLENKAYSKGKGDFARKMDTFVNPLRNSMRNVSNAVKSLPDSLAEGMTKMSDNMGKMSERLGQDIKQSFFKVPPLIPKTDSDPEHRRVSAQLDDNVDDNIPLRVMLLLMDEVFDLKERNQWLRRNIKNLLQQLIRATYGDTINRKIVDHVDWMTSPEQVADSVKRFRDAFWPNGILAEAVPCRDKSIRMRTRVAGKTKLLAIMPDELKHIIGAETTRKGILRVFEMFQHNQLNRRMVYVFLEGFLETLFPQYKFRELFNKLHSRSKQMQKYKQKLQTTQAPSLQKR
# UniProt Q8WVI0: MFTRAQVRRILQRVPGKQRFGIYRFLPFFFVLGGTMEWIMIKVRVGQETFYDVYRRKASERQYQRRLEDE
# UniProt P08294: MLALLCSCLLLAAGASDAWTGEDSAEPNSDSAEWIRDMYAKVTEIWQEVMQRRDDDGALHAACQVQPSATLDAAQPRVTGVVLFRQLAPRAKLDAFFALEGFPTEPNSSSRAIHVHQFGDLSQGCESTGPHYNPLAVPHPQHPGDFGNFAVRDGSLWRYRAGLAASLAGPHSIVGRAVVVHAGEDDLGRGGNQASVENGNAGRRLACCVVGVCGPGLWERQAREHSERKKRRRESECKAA
# UniProt Q8IYR2: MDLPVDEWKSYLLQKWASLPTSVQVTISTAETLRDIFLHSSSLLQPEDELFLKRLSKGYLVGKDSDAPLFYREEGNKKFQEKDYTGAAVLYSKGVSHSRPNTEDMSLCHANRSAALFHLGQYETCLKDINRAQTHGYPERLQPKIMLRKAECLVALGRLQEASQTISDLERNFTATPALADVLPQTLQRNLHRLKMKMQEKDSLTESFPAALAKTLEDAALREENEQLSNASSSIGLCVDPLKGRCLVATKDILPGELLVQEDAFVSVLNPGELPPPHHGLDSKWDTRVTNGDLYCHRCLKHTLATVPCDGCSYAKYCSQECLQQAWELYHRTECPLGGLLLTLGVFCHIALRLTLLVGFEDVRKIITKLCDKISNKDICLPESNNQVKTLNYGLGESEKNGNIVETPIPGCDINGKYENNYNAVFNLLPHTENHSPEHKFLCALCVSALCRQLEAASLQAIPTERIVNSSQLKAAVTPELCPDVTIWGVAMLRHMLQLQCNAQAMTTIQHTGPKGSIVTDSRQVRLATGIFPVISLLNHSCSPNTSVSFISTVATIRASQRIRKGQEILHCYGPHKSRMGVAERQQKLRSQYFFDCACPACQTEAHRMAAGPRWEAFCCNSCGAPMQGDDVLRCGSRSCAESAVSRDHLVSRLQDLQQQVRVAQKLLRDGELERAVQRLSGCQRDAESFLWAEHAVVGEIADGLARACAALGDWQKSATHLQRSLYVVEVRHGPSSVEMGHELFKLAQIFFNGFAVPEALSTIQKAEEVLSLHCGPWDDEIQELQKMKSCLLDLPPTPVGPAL
# UniProt Q9H4I9: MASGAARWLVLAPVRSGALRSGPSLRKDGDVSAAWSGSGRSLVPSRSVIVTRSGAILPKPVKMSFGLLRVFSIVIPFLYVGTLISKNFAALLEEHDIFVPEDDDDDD
# UniProt Q6STE5, whole entry, looked up: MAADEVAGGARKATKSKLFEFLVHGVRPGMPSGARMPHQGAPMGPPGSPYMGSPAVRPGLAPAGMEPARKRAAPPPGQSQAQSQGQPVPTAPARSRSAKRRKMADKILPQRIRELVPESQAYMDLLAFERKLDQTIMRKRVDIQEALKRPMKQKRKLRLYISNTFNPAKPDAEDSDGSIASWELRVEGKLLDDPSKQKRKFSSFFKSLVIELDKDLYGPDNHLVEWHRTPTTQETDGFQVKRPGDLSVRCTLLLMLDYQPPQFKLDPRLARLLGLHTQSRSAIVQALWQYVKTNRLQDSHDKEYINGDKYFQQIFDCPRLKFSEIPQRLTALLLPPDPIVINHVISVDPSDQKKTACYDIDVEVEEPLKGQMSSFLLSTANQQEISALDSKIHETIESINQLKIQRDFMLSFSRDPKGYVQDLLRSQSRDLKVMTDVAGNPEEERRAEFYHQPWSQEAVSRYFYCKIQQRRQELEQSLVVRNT
# UniProt Q15506: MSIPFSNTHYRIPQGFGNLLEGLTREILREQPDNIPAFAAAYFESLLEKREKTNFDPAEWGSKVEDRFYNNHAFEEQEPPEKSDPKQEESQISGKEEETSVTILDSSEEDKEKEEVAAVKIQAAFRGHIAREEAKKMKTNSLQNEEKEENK
# UniProt P58511: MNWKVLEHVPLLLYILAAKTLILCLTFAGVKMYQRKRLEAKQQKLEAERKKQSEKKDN
# UniProt Q9Y343: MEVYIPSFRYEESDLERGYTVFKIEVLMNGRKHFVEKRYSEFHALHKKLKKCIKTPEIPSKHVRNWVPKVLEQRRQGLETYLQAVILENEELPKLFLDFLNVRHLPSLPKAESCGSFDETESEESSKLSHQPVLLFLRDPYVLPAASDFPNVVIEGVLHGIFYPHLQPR
# UniProt P17405: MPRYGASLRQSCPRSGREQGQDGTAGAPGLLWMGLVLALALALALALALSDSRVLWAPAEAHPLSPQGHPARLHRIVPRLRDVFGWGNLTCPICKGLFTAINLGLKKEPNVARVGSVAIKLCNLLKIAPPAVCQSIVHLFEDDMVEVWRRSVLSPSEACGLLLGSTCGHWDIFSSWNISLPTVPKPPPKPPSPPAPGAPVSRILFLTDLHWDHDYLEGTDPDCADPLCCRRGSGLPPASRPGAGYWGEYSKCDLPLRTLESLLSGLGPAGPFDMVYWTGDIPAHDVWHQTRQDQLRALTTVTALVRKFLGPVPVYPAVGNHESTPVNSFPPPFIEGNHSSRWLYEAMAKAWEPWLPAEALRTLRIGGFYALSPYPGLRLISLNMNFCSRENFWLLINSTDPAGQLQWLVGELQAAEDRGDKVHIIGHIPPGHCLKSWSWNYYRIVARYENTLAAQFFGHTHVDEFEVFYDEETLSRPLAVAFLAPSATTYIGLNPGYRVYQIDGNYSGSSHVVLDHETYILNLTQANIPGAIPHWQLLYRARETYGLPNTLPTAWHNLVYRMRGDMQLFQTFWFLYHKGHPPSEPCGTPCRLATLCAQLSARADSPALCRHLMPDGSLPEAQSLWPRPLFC
# UniProt Q07617: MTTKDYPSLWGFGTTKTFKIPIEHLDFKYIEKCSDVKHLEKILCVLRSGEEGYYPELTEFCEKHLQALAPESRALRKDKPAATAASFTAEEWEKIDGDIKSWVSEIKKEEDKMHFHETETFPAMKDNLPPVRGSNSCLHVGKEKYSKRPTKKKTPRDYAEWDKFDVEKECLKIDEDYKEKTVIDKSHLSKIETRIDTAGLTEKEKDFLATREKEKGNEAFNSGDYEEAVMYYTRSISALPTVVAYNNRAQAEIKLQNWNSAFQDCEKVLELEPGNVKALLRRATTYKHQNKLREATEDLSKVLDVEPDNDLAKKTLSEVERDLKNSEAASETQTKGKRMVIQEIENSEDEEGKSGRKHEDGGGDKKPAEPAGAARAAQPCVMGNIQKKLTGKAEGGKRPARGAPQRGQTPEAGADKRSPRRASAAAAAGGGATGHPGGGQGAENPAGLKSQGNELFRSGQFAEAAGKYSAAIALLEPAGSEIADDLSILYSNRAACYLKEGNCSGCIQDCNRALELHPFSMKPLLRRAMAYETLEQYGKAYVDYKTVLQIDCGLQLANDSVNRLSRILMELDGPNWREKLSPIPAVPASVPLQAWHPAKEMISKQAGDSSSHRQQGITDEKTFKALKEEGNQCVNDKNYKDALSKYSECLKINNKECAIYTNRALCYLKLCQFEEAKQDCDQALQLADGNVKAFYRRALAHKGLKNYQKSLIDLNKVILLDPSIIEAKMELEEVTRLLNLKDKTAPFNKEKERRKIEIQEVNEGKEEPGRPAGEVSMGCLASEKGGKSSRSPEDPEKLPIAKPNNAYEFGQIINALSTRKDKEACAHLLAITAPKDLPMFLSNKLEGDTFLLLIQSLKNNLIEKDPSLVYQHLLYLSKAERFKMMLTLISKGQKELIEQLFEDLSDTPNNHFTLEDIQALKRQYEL
# UniProt O15370: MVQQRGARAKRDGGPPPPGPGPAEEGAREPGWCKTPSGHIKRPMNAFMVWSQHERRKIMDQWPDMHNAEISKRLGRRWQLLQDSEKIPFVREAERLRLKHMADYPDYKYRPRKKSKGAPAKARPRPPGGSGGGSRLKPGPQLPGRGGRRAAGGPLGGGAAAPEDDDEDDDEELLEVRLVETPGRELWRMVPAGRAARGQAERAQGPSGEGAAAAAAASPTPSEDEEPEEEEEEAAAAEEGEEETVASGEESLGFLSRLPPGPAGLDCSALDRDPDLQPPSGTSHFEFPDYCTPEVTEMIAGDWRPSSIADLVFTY
# UniProt Q9Y5X0: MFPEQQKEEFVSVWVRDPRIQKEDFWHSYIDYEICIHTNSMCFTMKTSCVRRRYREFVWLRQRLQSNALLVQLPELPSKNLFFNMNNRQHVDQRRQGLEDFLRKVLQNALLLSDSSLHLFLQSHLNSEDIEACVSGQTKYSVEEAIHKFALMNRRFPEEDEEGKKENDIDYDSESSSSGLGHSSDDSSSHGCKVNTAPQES
# UniProt Q9NWM0: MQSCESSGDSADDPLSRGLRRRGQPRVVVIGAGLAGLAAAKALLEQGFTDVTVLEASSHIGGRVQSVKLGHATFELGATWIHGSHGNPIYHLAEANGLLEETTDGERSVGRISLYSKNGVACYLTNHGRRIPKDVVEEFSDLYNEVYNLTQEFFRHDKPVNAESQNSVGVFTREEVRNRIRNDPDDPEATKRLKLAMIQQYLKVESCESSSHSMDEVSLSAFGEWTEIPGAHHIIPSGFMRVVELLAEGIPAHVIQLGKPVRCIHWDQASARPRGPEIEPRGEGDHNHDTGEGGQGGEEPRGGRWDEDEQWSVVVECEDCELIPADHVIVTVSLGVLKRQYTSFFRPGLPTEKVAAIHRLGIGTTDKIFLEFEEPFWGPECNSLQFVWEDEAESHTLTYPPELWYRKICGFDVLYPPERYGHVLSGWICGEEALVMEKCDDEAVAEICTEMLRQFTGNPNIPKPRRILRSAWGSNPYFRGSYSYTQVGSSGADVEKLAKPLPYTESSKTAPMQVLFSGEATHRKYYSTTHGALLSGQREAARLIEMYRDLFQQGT
# Assays:
# Assay in all cases: log2 fold change, soluble protein after heating vs DMSO (PISA); higher = thermal stabilisation; K562 lysate, 10 uM; active = over 0.2 and 3.5 SD of the protein, either way, in both replicates (recomputed)
# vorinostat = compound: O=C(CCCCCCC(=O)Nc1ccccc1)NO [vorinostat]
# Outline: (§1)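 Values give the log-two fold change in thermal stability against solvent controls, from duplicates. Crude K562 extract at 1 mg/mL protein, made by dounce homogenisation in PBS pH 7.4 with 1 mM MgCl2, was treated with 10 μM compound for 30 min. After 3 min heating across 48°C-58°C, aliquots were pooled, adjusted to 0.5% NP-40 at 4°C and centrifuged at 21,000xg for 90 min. The supernatant was measured by TMTpro 16plex LC-MS/MS with channel sums equalised.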
# silmitasertib = compound: O=C(O)c1ccc2c(c1)nc(Nc1cccc(Cl)c1)c1ccncc12 [silmitasertib]
# Outline: as §1
# [1] = compound: O=C1NC(=O)C(c2cnc3ccccn23)=C1c1cn2c3c(cc(F)cc13)CN(C(=O)N1CCCCC1)CC2
# Outline: as §1
# entospletinib = compound: c1cn2cc(-c3ccc4cn[nH]c4c3)nc(Nc3ccc(N4CCOCC4)cc3)c2n1 [entospletinib]
# Outline: as §1
# [2] = compound: NCC(=O)Nc1ccc(-n2nc(C(F)(F)F)cc2-c2ccc3c(ccc4ccccc43)c2)cc1
# Outline: as §1
Target,log2 fold change (vorinostat),log2 fold change (silmitasertib),log2 fold change [1],log2 fold change (entospletinib),log2 fold change [2]
SNX29 (UniProt Q8TEQ0),inactive: -0.339,inactive: 0.03,inactive: 0.092,inactive: -0.014,–
SNX13 (UniProt Q9Y5W8),inactive: 0.066,inactive: 0.234,inactive: -0.063,–,–
SMIM4 (UniProt Q8WVI0),–,–,inactive: -0.091,–,–
SOD3 (UniProt P08294),–,–,–,inactive: 0.028,inactive: 0.003
SMYD4 (UniProt Q8IYR2),inactive: -0.018,inactive: -0.166,inactive: 0.115,–,–
SMDT1 (UniProt Q9H4I9),inactive: 0.04,inactive: -0.073,–,–,–
SMARCD3 (UniProt Q6STE5),inactive: -0.092,inactive: -0.002,–,–,–
SPA17 (UniProt Q15506),–,–,inactive: 0.022,inactive: -0.025,inactive: 0.049
SMIM11A (UniProt P58511),–,–,inactive: -0.029,inactive: 0.123,inactive: -0.032
SNAPC4 (UniProt Q5SXM2),–,–,–,inactive: -0.066,inactive: 0.13
SNAPC3 (UniProt Q92966),inactive: -0.382,inactive: -0.105,inactive: -0.003,inactive: -0.106,–
SNX24 (UniProt Q9Y343),inactive: 0.059,inactive: 0.019,inactive: -0.083,inactive: -0.006,–
SMPD1 (UniProt P17405),inactive: 0.073,inactive: 0.02,inactive: -0.052,–,–
SPAG1 (UniProt Q07617),–,–,inactive: -0.061,–,inactive: 0.227
SOX12 (UniProt O15370),–,–,inactive: 0.004,–,inactive: -0.023
SP2 (UniProt Q02086),–,–,inactive: 0.067,inactive: 0.057,–
SNX10 (UniProt Q9Y5X0),inactive: -0.057,inactive: 0.001,inactive: 0.117,–,–
SMOX isoform 6 (UniProt Q9NWM0),inactive: 0.074,inactive: -0.198,–,–,–

# Quoted from the listing:
# SNX13 (UniProt Q9Y5W8) – log2 fold change (vorinostat): inactive: 0.066
# SNAPC3 (UniProt Q92966) – log2 fold change (vorinostat): inactive: -0.382

# — the supplement of paper PMC10849652
